Test results from paper PMC5059474.
Results are given in words; binding and its absence hold for the method and conditions named. Binding seen in cells or lysates may run through a third protein. Some entries that bind do so weakly or less than the wild type.

Sequences of proteins named here, by UniProt entry; tags and fusion partners are left off.
UniProt P09874: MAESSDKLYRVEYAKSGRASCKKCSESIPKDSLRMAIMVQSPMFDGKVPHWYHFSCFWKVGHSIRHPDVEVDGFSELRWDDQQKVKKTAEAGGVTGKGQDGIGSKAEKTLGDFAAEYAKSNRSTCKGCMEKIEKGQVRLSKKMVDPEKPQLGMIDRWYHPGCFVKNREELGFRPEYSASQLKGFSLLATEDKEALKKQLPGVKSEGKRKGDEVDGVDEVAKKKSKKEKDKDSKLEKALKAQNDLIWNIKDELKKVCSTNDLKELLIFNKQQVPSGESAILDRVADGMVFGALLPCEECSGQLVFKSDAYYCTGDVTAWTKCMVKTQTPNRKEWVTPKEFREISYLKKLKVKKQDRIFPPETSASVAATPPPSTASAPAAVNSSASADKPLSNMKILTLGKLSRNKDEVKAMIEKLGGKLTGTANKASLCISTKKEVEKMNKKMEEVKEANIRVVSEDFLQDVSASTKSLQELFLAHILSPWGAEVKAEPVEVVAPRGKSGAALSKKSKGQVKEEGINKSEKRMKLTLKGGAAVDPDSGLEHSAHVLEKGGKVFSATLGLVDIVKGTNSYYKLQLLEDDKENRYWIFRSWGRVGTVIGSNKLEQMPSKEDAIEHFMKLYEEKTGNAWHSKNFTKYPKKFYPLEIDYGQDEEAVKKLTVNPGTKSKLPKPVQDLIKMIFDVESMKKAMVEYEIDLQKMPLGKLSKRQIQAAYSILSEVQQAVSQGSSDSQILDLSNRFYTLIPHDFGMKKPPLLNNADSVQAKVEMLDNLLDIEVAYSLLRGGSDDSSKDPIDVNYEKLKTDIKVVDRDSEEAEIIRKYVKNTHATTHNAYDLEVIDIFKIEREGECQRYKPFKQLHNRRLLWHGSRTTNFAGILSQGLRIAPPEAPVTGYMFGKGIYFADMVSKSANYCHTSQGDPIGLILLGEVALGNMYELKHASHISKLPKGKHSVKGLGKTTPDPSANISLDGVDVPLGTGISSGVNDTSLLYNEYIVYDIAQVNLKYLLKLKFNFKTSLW
UniProt Q12888: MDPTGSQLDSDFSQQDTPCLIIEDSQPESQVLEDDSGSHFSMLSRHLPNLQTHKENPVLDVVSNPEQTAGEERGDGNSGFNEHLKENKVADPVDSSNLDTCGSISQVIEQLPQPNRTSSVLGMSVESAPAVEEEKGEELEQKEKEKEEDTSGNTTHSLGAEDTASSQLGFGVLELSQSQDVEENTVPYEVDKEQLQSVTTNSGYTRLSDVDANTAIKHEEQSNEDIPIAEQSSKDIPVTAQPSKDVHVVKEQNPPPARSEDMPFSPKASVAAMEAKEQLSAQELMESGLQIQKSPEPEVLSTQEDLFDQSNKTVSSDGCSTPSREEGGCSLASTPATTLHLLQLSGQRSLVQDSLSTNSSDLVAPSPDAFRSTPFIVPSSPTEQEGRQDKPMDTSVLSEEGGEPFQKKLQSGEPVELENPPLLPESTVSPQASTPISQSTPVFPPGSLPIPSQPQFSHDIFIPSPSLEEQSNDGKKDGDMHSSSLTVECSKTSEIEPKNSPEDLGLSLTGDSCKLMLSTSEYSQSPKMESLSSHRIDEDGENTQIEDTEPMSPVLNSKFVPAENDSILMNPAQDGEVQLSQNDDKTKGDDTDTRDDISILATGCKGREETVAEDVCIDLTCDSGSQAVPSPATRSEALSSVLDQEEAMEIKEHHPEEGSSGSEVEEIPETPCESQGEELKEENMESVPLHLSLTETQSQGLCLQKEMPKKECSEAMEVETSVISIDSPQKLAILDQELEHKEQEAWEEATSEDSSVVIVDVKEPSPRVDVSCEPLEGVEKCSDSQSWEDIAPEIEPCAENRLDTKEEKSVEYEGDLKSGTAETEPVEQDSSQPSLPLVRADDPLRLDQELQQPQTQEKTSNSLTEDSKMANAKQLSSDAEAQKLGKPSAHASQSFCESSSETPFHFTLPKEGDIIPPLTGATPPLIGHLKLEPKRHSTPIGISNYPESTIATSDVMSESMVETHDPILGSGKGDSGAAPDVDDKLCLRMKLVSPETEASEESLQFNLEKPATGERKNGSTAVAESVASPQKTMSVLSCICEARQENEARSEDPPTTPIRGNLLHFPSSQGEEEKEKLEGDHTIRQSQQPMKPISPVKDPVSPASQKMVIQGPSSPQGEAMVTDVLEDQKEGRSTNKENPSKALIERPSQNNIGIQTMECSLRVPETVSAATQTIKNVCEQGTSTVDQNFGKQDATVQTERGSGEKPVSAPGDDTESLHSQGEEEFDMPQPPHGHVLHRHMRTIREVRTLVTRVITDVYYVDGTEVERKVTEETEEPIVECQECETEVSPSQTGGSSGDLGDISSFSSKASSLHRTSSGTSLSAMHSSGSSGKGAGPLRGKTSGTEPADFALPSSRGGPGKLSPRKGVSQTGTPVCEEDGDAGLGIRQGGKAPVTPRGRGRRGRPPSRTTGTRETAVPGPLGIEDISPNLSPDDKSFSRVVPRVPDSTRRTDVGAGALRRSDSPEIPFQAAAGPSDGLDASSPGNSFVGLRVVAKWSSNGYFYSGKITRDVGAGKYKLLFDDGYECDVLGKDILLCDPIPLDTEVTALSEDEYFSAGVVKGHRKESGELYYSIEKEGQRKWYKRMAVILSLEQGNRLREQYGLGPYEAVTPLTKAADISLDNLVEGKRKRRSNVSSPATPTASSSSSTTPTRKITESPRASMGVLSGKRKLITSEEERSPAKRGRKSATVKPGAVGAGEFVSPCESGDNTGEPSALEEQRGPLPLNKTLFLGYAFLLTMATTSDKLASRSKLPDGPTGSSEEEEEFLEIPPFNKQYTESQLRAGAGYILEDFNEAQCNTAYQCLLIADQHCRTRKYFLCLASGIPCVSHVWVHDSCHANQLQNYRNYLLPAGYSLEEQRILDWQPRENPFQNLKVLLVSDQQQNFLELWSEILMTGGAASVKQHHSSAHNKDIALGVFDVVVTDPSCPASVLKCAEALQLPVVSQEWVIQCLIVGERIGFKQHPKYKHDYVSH
UniProt Q06609: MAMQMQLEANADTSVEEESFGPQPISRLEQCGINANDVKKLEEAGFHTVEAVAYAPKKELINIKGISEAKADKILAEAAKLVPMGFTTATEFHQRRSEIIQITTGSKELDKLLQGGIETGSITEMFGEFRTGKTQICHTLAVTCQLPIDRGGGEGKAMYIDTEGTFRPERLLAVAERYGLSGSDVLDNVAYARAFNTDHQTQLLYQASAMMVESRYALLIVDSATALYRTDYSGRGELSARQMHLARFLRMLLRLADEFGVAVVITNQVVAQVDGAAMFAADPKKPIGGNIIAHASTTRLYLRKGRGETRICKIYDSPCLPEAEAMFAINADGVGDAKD
UniProt P18887: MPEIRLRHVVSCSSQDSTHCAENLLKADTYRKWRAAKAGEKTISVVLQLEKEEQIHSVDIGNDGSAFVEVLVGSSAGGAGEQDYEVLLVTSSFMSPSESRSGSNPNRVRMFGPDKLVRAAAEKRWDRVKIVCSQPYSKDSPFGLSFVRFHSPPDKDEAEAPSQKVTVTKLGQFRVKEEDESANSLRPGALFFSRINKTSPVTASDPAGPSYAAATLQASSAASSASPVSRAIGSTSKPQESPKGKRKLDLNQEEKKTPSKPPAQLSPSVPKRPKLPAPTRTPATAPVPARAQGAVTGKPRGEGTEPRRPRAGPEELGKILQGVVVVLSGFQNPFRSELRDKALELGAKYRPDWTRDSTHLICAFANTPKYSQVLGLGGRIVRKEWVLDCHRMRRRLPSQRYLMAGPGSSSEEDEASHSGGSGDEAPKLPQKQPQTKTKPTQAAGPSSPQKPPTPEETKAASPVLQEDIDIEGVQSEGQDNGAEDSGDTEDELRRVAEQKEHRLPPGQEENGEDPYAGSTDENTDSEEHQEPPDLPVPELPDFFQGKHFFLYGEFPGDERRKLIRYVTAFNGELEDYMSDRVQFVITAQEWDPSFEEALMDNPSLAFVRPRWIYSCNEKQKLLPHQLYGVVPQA

How the values were obtained:
Assay in all cases: co-IP; benzonase-treated nuclear extracts of HEK293 cells (mock, Bleo 30 μg/ml 1 h, 10–12 h recovery after Bleo, or IR 5 grey); IP with 2-5 μg antibody to the endogenous bait or control IgG and Protein A/G PLUS agarose; three washes with 20 mM HEPES pH 7.9, 150 mM KCl, 0.25% Triton-X-100; western blot
[1] = target: PARP1 (human (endogenous in HEK293)) (UniProt P09874)
[2] = target: 53BP1 (human (endogenous in HEK293)) (UniProt Q12888)
[3] = target: T1, Lig IV (human (endogenous in HEK293)) (UniProt P49917)
T1 sequence: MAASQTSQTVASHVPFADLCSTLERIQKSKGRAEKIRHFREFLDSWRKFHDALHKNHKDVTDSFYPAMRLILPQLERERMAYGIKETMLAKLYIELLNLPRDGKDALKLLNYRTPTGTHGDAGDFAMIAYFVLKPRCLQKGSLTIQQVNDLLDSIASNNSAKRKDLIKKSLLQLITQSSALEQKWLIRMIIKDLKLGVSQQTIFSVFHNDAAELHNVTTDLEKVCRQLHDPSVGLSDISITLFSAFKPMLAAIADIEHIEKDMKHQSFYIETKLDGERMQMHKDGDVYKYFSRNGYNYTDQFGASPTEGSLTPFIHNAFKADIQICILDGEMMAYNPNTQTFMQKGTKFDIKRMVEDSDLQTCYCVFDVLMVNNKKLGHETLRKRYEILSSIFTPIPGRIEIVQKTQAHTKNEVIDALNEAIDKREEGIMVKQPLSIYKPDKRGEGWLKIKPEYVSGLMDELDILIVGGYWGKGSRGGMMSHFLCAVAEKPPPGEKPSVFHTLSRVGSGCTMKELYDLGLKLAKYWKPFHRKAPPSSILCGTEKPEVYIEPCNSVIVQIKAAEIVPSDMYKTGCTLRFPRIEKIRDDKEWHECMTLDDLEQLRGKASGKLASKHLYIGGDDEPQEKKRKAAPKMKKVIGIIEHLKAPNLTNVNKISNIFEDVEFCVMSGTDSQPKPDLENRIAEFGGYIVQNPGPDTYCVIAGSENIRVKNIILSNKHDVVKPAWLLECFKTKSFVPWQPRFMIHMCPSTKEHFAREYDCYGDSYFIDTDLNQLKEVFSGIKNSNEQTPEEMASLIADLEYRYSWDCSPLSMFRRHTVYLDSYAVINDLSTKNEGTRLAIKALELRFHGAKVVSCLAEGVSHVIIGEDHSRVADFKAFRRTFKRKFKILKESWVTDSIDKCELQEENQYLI

[4] = target: polynucleotide kinase 3′ phosphatase (human (endogenous in HEK293)) (UniProt Q96T60)

Row | binding [1] | binding [2] | binding [3] | binding [4] | Substance
1 | binds | – | – | – | polynucleotide kinase 3′ phosphatase (from UniProt Q96T60 1-521) (enzyme)
2 | – | no binding | no binding | no binding | RAD51 (from UniProt Q06609 1-339)
3 | – | – | no binding | – | XRCC1 (from UniProt P18887 1-633)
